Reference: publication PMC12456001
Results are given in words; binding and its absence hold for the method and conditions named. In cells and extracts the contact can be indirect. Some binding calls cover weakened binding; strength is not graded here. For some of these results: Tags and fused reporters may be left off the sequences shown.

By UniProt entry, the sequences of proteins in these tests, tags left out. Where a name states a change or a piece, a line headed by the entry shows the natural chain unless it says otherwise.
UniProt Q8TDD1: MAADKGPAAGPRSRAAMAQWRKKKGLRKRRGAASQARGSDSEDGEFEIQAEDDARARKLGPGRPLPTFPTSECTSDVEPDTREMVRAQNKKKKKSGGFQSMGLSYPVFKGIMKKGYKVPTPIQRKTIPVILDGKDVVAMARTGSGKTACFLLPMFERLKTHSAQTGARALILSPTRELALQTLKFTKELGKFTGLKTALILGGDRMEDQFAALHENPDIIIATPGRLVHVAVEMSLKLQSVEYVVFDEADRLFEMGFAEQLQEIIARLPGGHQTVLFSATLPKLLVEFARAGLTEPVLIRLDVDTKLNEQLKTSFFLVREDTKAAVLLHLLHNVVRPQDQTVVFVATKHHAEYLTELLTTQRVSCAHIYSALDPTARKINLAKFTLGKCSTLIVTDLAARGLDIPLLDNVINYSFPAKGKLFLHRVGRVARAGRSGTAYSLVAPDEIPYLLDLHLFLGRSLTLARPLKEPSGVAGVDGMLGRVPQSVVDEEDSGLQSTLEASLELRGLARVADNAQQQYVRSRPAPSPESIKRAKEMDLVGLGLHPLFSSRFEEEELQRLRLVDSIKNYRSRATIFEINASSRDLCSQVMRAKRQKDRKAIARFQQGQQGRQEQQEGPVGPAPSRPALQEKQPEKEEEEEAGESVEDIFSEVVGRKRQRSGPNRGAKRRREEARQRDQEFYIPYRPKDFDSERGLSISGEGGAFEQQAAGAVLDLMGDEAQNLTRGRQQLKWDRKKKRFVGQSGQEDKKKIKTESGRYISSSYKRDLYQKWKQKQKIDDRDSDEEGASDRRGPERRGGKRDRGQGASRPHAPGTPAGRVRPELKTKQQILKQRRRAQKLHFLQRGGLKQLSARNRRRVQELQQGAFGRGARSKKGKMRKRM

Legend:
[1] = biological target: DDX54 D250A (ATPase-deficient DDX54 mutant, tagged, overexpressed) (UniProt Q8TDD1); assay: co-IP
[2] = biological target: DDX54-Flag (DEAD-box helicase 54, tagged, overexpressed) (UniProt Q8TDD1); assay: co-IP

ALKBH5-Flag (AlkB homolog 5, tagged, overexpressed) (from UniProt Q6P6C2-2 1-394) (enzyme)
binding [1]: binds
binding [2]: binds

METTL3 (m6A methyltransferase-like 3, tagged, overexpressed) (from UniProt Q86U44-1 1-580) (enzyme)
binding [2]: binds

B1: METTL14 (tagged, overexpressed) (enzyme, UniProt Q9HCE5 1-456)
chain: MDSRLQEIRERQKLRRQLLAQQLGAESADSIGAVLNSKDEQREIAETRETCRASYDTSAPNAKRKYLDEGETDEDKMEEYKDELEMQQDEENLPYEEEIYKDSSTFLKGTQSLNPHNDYCQHFVDTGHRPQNFIRDVGLADRFEEYPKLRELIRLKDELIAKSNTPPMYLQADIEAFDIRELTPKFDVILLEPPLEEYYRETGITANEKCWTWDDIMKLEIDEIAAPRSFIFLWCGSGEGLDLGRVCLRKWGYRRCEDICWIKTNKNNPGKTKTLDPKAVFQRTKEHCLMGIKGTVKRSTDGDFIHANVDIDLIITEEPEIGNIEKPVEIFHIIEHFCLGRRRLHLFGRDSTIRPGWLTVGPTLTNSNYNAETYASYFSAPNSYLTGCTEEIERLRPKSPPPKSKSDRGGGAPRGGGRGGTSAGRGRERNRSNFRGERGGFRGGRGGAHRGGFPPR
binding [2]: binds
